PubChem BioAssay AID1259254 | NCATS, 2017
This is one part, drawn at random, of about 59,000 deposited reagents. About 1,550 of all reagents (2.6%) were called active. 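G2 share is only a proxy for re-replication; each gene was hit by three separate siRNAs, and active genes were retested.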 Entries without a mark were called inactive. The numbers tell different reagents against one gene apart. Further read-outs or replicates are left out here. Not stated in the record: the amount of reagent.

Purpose: 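Finding genes that stop cells copying their DNA twice in one cycle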 (primary screen)
System: human HCT116 colorectal cancer cells
Reagents: single siRNA against human genes
Timing: 3 days
Read-out: 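Imaged Hoechst DNA stain sorts each cell into a cycle phase by DNA amount; per plate, G2 fraction set to 0% for non-targeting and 100% for GMNN siRNA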
Reading the numbers: G2 robust z-score and G2 cells, % of GMNN control: higher = more G2 cells, more excess DNA replication
Hit rule: 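Active siRNAs have a G2 robust z of 5 or more median absolute deviations over the median, which in these data means about 38% or higher of GMNN control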

{"gene": "SSU72 (SSU72 homolog, RNA polymerase II CTD phosphatase)", "reagent": 1, "G2 robust z-score": -0.849, "G2 cells, % of GMNN control": -3.01}
{"gene": "SSU72 (SSU72 homolog, RNA polymerase II CTD phosphatase)", "reagent": 2, "G2 robust z-score": -0.657, "G2 cells, % of GMNN control": -1.66}
{"gene": "SSU72 (SSU72 homolog, RNA polymerase II CTD phosphatase)", "reagent": 3, "G2 robust z-score": 2.56, "G2 cells, % of GMNN control": 21}
{"gene": "STMN2 (stathmin 2)", "reagent": 1, "G2 robust z-score": -0.456, "G2 cells, % of GMNN control": -0.238}
{"gene": "STMN2 (stathmin 2)", "reagent": 2, "G2 robust z-score": -0.369, "G2 cells, % of GMNN control": 0.371}
{"gene": "STMN2 (stathmin 2)", "reagent": 3, "G2 robust z-score": 0.947, "G2 cells, % of GMNN control": 9.63}
{"gene": "PFN1P6 (profilin 1 pseudogene 6)", "reagent": 1, "G2 robust z-score": -0.099, "G2 cells, % of GMNN control": 2.27}
{"gene": "PFN1P6 (profilin 1 pseudogene 6)", "reagent": 2, "G2 robust z-score": 0.64, "G2 cells, % of GMNN control": 7.47}
{"gene": "PFN1P6 (profilin 1 pseudogene 6)", "reagent": 3, "G2 robust z-score": -0.777, "G2 cells, % of GMNN control": -2.5}
{"gene": "IGHV4OR15-8 (immunoglobulin heavy variable 4/OR15-8 (non-functional))", "reagent": 1, "G2 robust z-score": -0.242, "G2 cells, % of GMNN control": 1.26}
{"gene": "IGHV4OR15-8 (immunoglobulin heavy variable 4/OR15-8 (non-functional))", "reagent": 2, "G2 robust z-score": 2.32, "G2 cells, % of GMNN control": 19.3}
{"gene": "IGHV4OR15-8 (immunoglobulin heavy variable 4/OR15-8 (non-functional))", "reagent": 3, "G2 robust z-score": -0.732, "G2 cells, % of GMNN control": -2.19}
{"gene": "CLP1 (cleavage factor polyribonucleotide kinase subunit 1)", "reagent": 1, "G2 robust z-score": 1.39, "G2 cells, % of GMNN control": 12.8}
{"gene": "CLP1 (cleavage factor polyribonucleotide kinase subunit 1)", "reagent": 2, "G2 robust z-score": -0.544, "G2 cells, % of GMNN control": -0.859}
{"gene": "CLP1 (cleavage factor polyribonucleotide kinase subunit 1)", "reagent": 3, "G2 robust z-score": -0.373, "G2 cells, % of GMNN control": 0.346}
{"gene": "KLHL42 (kelch like family member 42)", "reagent": 1, "G2 robust z-score": 0.943, "G2 cells, % of GMNN control": 9.6}
{"gene": "KLHL42 (kelch like family member 42)", "reagent": 2, "G2 robust z-score": -0.366, "G2 cells, % of GMNN control": 0.396}
{"gene": "KLHL42 (kelch like family member 42)", "reagent": 3, "G2 robust z-score": 2.04, "G2 cells, % of GMNN control": 17.3}

5 entries from above, ordered by “G2 cells, % of GMNN control”, low to high:
{"gene": "CLP1 (cleavage factor polyribonucleotide kinase subunit 1)", "reagent": 2, "G2 robust z-score": -0.544, "G2 cells, % of GMNN control": -0.859}
{"gene": "CLP1 (cleavage factor polyribonucleotide kinase subunit 1)", "reagent": 3, "G2 robust z-score": -0.373, "G2 cells, % of GMNN control": 0.346}
{"gene": "KLHL42 (kelch like family member 42)", "reagent": 2, "G2 robust z-score": -0.366, "G2 cells, % of GMNN control": 0.396}
{"gene": "KLHL42 (kelch like family member 42)", "reagent": 1, "G2 robust z-score": 0.943, "G2 cells, % of GMNN control": 9.6}
{"gene": "CLP1 (cleavage factor polyribonucleotide kinase subunit 1)", "reagent": 1, "G2 robust z-score": 1.39, "G2 cells, % of GMNN control": 12.8}

Continued:
{"gene": "CEP95 (centrosomal protein 95)", "reagent": 1, "G2 robust z-score": -0.306, "G2 cells, % of GMNN control": 0.816}
{"gene": "CEP95 (centrosomal protein 95)", "reagent": 2, "G2 robust z-score": 0.313, "G2 cells, % of GMNN control": 5.17}
{"gene": "CEP95 (centrosomal protein 95)", "reagent": 3, "G2 robust z-score": 0.219, "G2 cells, % of GMNN control": 4.51}
{"gene": "SLCO4C1", "reagent": 1, "G2 robust z-score": 0.335, "G2 cells, % of GMNN control": 5.32}
{"gene": "SLCO4C1", "reagent": 2, "G2 robust z-score": -0.592, "G2 cells, % of GMNN control": -1.2}
{"gene": "SLCO4C1", "reagent": 3, "G2 robust z-score": -0.614, "G2 cells, % of GMNN control": -1.35}
{"gene": "DNAJC1 (DnaJ heat shock protein family (Hsp40) member C1)", "reagent": 1, "G2 robust z-score": 0.713, "G2 cells, % of GMNN control": 7.99}
{"gene": "DNAJC1 (DnaJ heat shock protein family (Hsp40) member C1)", "reagent": 2, "G2 robust z-score": -1.05, "G2 cells, % of GMNN control": -4.45}
{"gene": "DNAJC1 (DnaJ heat shock protein family (Hsp40) member C1)", "reagent": 3, "G2 robust z-score": 4.81, "G2 cells, % of GMNN control": 36.8}
{"gene": "SLC9A3", "reagent": 1, "G2 robust z-score": 0.0291, "G2 cells, % of GMNN control": 3.17}
{"gene": "SLC9A3", "reagent": 2, "G2 robust z-score": -0.272, "G2 cells, % of GMNN control": 1.05}
{"gene": "SLC9A3", "reagent": 3, "G2 robust z-score": 0.000833, "G2 cells, % of GMNN control": 2.97}
